Test results from publication PMC10107498.
No constants are given. Whether binding was seen depends on the method and setting. For some assays here: In cells and extracts the contact can be indirect. Some entries that bind do so weakly or less than the wild type. Tags and fused reporters may be left off the sequences shown.

Protein sequences, listed by entry. Tags and fused reporters are not part of them. Lines headed by an entry give the natural chain unless they say otherwise; changes in a name come on top.
UniProt Q9FNY0: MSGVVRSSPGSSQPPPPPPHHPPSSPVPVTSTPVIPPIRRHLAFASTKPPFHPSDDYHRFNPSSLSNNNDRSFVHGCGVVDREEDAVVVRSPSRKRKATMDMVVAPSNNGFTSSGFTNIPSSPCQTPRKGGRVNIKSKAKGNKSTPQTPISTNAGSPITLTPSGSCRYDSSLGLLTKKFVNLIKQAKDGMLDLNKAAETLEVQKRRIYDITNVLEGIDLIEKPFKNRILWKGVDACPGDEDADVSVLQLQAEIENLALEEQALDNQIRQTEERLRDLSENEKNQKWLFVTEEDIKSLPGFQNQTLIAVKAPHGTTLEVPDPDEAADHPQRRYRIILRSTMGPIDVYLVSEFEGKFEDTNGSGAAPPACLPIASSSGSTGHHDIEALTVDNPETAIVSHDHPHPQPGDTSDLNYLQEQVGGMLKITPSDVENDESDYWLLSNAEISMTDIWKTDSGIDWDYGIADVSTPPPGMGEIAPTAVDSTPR

Tests used:
[1] = target: T1, SNF1-related protein kinase 1 (SnRK1.1), Gal4 DNA-binding domain fusion in pGBKT7 (Arabidopsis thaliana) (UniProt Q38997); assay: two-hybrid; Clontech system, yeast AH109; SnRK1.1 constructs in pGBKT7, E2F constructs in pGADT7; growth on medium lacking His, Leu and Trp with 0.5 mM 3-amino-1,2,4-triazole
T1 sequence: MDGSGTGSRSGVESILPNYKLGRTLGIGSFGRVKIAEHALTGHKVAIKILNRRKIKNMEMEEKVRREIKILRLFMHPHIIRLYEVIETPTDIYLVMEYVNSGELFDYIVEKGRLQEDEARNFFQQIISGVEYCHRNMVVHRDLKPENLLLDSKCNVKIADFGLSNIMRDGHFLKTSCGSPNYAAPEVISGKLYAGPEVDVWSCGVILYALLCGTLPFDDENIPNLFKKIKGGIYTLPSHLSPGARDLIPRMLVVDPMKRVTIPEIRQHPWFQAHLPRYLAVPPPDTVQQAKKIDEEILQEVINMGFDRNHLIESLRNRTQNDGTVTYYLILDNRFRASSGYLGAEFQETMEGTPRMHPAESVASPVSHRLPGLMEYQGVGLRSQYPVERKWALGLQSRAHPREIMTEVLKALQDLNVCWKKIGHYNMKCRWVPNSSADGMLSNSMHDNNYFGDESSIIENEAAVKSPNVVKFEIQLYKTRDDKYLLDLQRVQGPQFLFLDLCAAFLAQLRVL

[2] = target: E2Fa-GFP expressed in Arabidopsis protoplasts (Arabidopsis thaliana) (UniProt Q9FNY0); assay: co-IP; Arabidopsis mesophyll protoplasts transfected with E2Fa-GFP with or without SnRK1.1-HA, 11 h with 5 uM MG132; lysate on ChromoTek beads (IP with anti-GFP), 6 h at 4 °C; immunoblot

## E2Fa^282–352 fragment including the marked box (MB) domain, Gal4 activation domain fusion in pGADT7 (from UniProt Q9FNY0 282-352) (domain or fragment)
[1]
  binding: binds

B1: HA-tagged SnRK1.1 (SnRK1.1-HA) expressed in Arabidopsis protoplasts (enzyme, UniProt Q38997 1-512)
chain: MDGSGTGSRSGVESILPNYKLGRTLGIGSFGRVKIAEHALTGHKVAIKILNRRKIKNMEMEEKVRREIKILRLFMHPHIIRLYEVIETPTDIYLVMEYVNSGELFDYIVEKGRLQEDEARNFFQQIISGVEYCHRNMVVHRDLKPENLLLDSKCNVKIADFGLSNIMRDGHFLKTSCGSPNYAAPEVISGKLYAGPEVDVWSCGVILYALLCGTLPFDDENIPNLFKKIKGGIYTLPSHLSPGARDLIPRMLVVDPMKRVTIPEIRQHPWFQAHLPRYLAVPPPDTVQQAKKIDEEILQEVINMGFDRNHLIESLRNRTQNDGTVTYYLILDNRFRASSGYLGAEFQETMEGTPRMHPAESVASPVSHRLPGLMEYQGVGLRSQYPVERKWALGLQSRAHPREIMTEVLKALQDLNVCWKKIGHYNMKCRWVPNSSADGMLSNSMHDNNYFGDESSIIENEAAVKSPNVVKFEIQLYKTRDDKYLLDLQRVQGPQFLFLDLCAAFLAQLRVL
[2]
  binding: binds
